Paper PMC7555893, “Structural role of essential light chains in the apicomplexan glideosome” (Communications Biology, 2020)
No constants are given. Whether binding was seen depends on the method and setting.

By UniProt entry, the sequences of proteins in these tests, tags left out. Where a name states a change or a piece, a line headed by the entry shows the natural chain unless it says otherwise.
UniProt Q8IJM4: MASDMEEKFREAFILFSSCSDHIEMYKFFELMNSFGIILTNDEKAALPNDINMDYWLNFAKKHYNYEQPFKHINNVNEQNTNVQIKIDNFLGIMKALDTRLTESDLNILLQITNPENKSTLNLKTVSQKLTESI
UniProt Q8IDR3: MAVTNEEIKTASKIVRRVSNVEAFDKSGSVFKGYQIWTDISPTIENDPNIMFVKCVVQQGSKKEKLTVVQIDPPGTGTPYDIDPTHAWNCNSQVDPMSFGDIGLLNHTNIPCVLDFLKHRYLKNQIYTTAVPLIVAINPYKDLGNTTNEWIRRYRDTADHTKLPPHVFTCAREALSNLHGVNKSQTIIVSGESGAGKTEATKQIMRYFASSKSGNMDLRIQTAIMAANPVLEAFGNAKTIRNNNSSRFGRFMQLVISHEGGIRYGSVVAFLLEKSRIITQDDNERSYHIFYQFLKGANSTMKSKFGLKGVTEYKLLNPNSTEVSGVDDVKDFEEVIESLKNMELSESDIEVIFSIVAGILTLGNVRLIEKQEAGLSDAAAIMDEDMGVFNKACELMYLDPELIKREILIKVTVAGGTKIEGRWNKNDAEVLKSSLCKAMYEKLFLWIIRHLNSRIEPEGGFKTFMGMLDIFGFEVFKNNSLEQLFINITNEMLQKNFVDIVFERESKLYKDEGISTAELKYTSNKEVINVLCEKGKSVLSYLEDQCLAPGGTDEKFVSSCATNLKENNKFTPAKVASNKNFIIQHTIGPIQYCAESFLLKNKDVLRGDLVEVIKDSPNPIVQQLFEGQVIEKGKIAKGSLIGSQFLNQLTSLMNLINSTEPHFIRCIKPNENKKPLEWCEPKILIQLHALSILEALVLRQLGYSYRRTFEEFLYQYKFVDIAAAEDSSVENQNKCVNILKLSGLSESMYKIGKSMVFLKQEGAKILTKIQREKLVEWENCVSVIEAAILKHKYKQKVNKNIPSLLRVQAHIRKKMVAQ

How the values were obtained:
[1] = target: P. falciparum essential light chain (PfELC) (P. falciparum 3D7) (UniProt Q8IJM4); experiment: NMR + non-reducing SDS-PAGE + SAXS; isolated PfELC and PfELC-N in solution; both purified
[2] = target: PfELC N-terminal domain (PfELC-N) (P. falciparum 3D7) (UniProt Q8IJM4); experiment: as above
[3] = target: P. falciparum essential light chain (PfELC) (P. falciparum 3D7) (UniProt Q8IJM4); experiment: ITC; PfELC mixed with PfMyoA peptides of the previously described binding sites; precipitation upon mixing; the method is taken from 'we measured the binding affinity', conditions not given; both purified

Substance	binding [3]	other results
P. falciparum essential light chain (PfELC) (from UniProt Q8IJM4 1-134)	–	binding [1]: no binding
PfELC N-terminal domain (PfELC-N) (from UniProt Q8IJM4 1-74) (domain or fragment)	–	binding [2]: no binding
PfMyoA peptide, residues 786-803 (from UniProt Q8IDR3 786-803)	no binding	–
PfMyoA peptide, residues 801-818 (from UniProt Q8IDR3 801-818)	no binding	–
